{"source": "PubChem BioAssay AID743454 – Peter MacCallum Cancer Centre, 2014", "screen": "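Search for knock-downs that restore vorinostat killing in resistant colon cancer cells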 (primary screen)", "cell system": "human HCT116-VR colon cancer cells, selected for vorinostat resistance", "reagent": "siRNA pool against human genes, 40 nM siRNA pool", "time to read-out": "vorinostat for 24 h, read-out about 72 h after transfection", "challenge": "vorinostat at 2.5 µM final", "read-out": "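Cell viability by CellTiter-Fluor and caspase 3/7 activity by luminescence, each scaled to mock wells per plate, duplicates averaged, then robust z-scored over all plates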", "scale": "viability robust z-score: higher = more viable cells than screen typical; caspase robust z-score: higher = more caspase 3/7 activity than screen typical", "hit rule": "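a knock-down is a hit when classed RV1 or RV2 for lowered viability, or CA1 or CA2 for caspase activation; those lethal without drug were dropped; hits were retested singly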", "note": "Shown is an unselected part of about 18,000 reagents. Of all reagents, 450 (2.5%) got an active call. 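Single biological run; no consistent viability z cut-off exists, so the class columns, not z-scores, define the calls.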"}
{"Target gene": "TLL2 (GeneID 7093)", "viability hit class": "no change", "caspase hit class": "no change", "viability robust z-score": -0.57, "caspase robust z-score": 1.58, "outcome": "inactive"}
{"Target gene": "SLN (GeneID 6588)", "viability hit class": "no change", "caspase hit class": "no change", "viability robust z-score": -0.2, "caspase robust z-score": -0.49, "outcome": "inactive"}
{"Target gene": "BOP1 (GeneID 23246)", "viability hit class": "no change", "caspase hit class": "no change", "viability robust z-score": -0.58, "caspase robust z-score": 2.47, "outcome": "inactive"}
{"Target gene": "LCP1 (GeneID 3936)", "viability hit class": "no change", "caspase hit class": "no change", "viability robust z-score": 0.18, "caspase robust z-score": 0.71, "outcome": "inactive"}
{"Target gene": "STARD3NL (GeneID 83930)", "viability hit class": "no change", "caspase hit class": "no change", "viability robust z-score": 0.66, "caspase robust z-score": -0.26, "outcome": "inactive"}
{"Target gene": "ELK4 (GeneID 2005)", "viability hit class": "no change", "caspase hit class": "no change", "viability robust z-score": -0.81, "caspase robust z-score": -0.16, "outcome": "inactive"}
{"Target gene": "AGFG1 (GeneID 3267)", "viability hit class": "no change", "caspase hit class": "no change", "viability robust z-score": -0.44, "caspase robust z-score": 0.36, "outcome": "inactive"}
{"Target gene": "OTOGL (GeneID 283310)", "viability hit class": "no change", "caspase hit class": "no change", "viability robust z-score": 0.26, "caspase robust z-score": -0.59, "outcome": "inactive"}
{"Target gene": "RNPEP (GeneID 6051)", "viability hit class": "no change", "caspase hit class": "no change", "viability robust z-score": -0.22, "caspase robust z-score": 2.24, "outcome": "inactive"}
{"Target gene": "MAPRE3 (GeneID 22924)", "viability hit class": "no change", "caspase hit class": "no change", "viability robust z-score": -0.24, "caspase robust z-score": -0.6, "outcome": "inactive"}
{"Target gene": "TAP2 (GeneID 6891)", "viability hit class": "no change", "caspase hit class": "no change", "viability robust z-score": 1.16, "caspase robust z-score": -0.02, "outcome": "inactive"}
{"Target gene": "TSKS (GeneID 60385)", "viability hit class": "no change", "caspase hit class": "no change", "viability robust z-score": 0.24, "caspase robust z-score": 1.62, "outcome": "inactive"}
{"Target gene": "F12 (GeneID 2161)", "viability hit class": "no change", "caspase hit class": "no change", "viability robust z-score": -1.4, "caspase robust z-score": 1.88, "outcome": "inactive"}
{"Target gene": "RBM26 (GeneID 64062)", "viability hit class": "no change", "caspase hit class": "no change", "viability robust z-score": -0.64, "caspase robust z-score": -0.78, "outcome": "inactive"}
{"Target gene": "IGSF5 (GeneID 150084)", "viability hit class": "no change", "caspase hit class": "no change", "viability robust z-score": 0.77, "caspase robust z-score": -0.82, "outcome": "inactive"}
{"Target gene": "C18orf54 (GeneID 162681)", "viability hit class": "no change", "caspase hit class": "no change", "viability robust z-score": 0.58, "caspase robust z-score": -0.83, "outcome": "inactive"}
{"Target gene": "EMCN (GeneID 51705)", "viability hit class": "no change", "caspase hit class": "no change", "viability robust z-score": 0.12, "caspase robust z-score": -0.38, "outcome": "inactive"}
{"Target gene": "GEMIN8 (GeneID 54960)", "viability hit class": "no change", "caspase hit class": "no change", "viability robust z-score": -0.26, "caspase robust z-score": -0.62, "outcome": "inactive"}
{"Target gene": "ATP13A3 (GeneID 79572)", "viability hit class": "no change", "caspase hit class": "no change", "viability robust z-score": 0.6, "caspase robust z-score": 0.08, "outcome": "inactive"}
{"Target gene": "EMD (GeneID 2010)", "viability hit class": "no change", "caspase hit class": "no change", "viability robust z-score": -0.8, "caspase robust z-score": -0.26, "outcome": "inactive"}
{"Target gene": "HTRA1 (GeneID 5654)", "viability hit class": "no change", "caspase hit class": "no change", "viability robust z-score": -3.33, "caspase robust z-score": 1.62, "outcome": "inactive"}
{"Target gene": "TMEM121B (GeneID 27439)", "viability hit class": "no change", "caspase hit class": "no change", "viability robust z-score": -2.76, "caspase robust z-score": 4.52, "outcome": "inactive"}
{"Target gene": "GLCCI1 (GeneID 113263)", "viability hit class": "no change", "caspase hit class": "no change", "viability robust z-score": 0.34, "caspase robust z-score": -1.25, "outcome": "inactive"}
{"Target gene": "TRIM32 (GeneID 22954)", "viability hit class": "no change", "caspase hit class": "no change", "viability robust z-score": -0.78, "caspase robust z-score": 4.48, "outcome": "inactive"}
{"Target gene": "ACOT4 (GeneID 122970)", "viability hit class": "no change", "caspase hit class": "no change", "viability robust z-score": 0.98, "caspase robust z-score": -0.5, "outcome": "inactive"}
{"Target gene": "TCEAL7 (GeneID 56849)", "viability hit class": "no change", "caspase hit class": "no change", "viability robust z-score": -0.87, "caspase robust z-score": 1.42, "outcome": "inactive"}
{"Target gene": "ZNF697 (GeneID 90874)", "viability hit class": "no change", "caspase hit class": "no change", "viability robust z-score": 0.98, "caspase robust z-score": -0.77, "outcome": "inactive"}

4 consecutive records from above:
{"Target gene": "TSKS (GeneID 60385)", "viability hit class": "no change", "caspase hit class": "no change", "viability robust z-score": 0.24, "caspase robust z-score": 1.62, "outcome": "inactive"}
{"Target gene": "F12 (GeneID 2161)", "viability hit class": "no change", "caspase hit class": "no change", "viability robust z-score": -1.4, "caspase robust z-score": 1.88, "outcome": "inactive"}
{"Target gene": "RBM26 (GeneID 64062)", "viability hit class": "no change", "caspase hit class": "no change", "viability robust z-score": -0.64, "caspase robust z-score": -0.78, "outcome": "inactive"}
{"Target gene": "IGSF5 (GeneID 150084)", "viability hit class": "no change", "caspase hit class": "no change", "viability robust z-score": 0.77, "caspase robust z-score": -0.82, "outcome": "inactive"}
